US20050261472A1, “Binding moieties for fibrin” (Dyax Corp., priority 1999, published 2005)
pKd: −log10 of the molar value. For some assays here: At least one peptide structure holds a part that was inferred or is arguable (an end, a ring closure or a residue). At least one compound was matched to its structure with a doubt left. Bridge positions count the residues as written; N and C are the ends. Peptide text beside a SMILES is read from it.

Assays:
dried fibrin = target: T1, dried fibrin (Homo sapiens, UniProt P02671+P02675+P02679); test: dissociation constant against dried fibrin (free peptide by mass spectrometry); type: binding
T1 construct: Thrombin cleavage at the Arg16-Arg17 bond in the Ax chains and at the Arg14-Gly15 bond on the BP chains releases fibrinopeptides A and B; host or cells: fibrinogen solution clotted with thrombin in 96-well plates and dried at 37 C
T1 sequence (P02671 36-629 limits assumed): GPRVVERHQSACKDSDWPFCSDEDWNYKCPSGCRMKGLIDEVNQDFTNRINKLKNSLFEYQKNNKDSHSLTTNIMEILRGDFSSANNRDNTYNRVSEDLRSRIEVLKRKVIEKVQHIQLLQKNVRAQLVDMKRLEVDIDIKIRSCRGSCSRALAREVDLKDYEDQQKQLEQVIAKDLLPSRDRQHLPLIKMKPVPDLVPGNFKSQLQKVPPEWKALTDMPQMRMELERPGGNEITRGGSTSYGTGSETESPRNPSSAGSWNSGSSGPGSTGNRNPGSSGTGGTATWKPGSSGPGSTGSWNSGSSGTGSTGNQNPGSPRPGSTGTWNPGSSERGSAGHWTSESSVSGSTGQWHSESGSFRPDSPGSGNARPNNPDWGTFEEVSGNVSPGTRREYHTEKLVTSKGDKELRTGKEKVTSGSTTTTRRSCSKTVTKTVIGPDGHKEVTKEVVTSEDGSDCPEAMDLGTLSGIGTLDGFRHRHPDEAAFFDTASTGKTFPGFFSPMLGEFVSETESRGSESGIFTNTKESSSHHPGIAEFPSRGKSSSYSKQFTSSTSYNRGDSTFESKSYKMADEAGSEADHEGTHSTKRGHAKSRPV
T1 sequence (P02675 45-491 limits assumed): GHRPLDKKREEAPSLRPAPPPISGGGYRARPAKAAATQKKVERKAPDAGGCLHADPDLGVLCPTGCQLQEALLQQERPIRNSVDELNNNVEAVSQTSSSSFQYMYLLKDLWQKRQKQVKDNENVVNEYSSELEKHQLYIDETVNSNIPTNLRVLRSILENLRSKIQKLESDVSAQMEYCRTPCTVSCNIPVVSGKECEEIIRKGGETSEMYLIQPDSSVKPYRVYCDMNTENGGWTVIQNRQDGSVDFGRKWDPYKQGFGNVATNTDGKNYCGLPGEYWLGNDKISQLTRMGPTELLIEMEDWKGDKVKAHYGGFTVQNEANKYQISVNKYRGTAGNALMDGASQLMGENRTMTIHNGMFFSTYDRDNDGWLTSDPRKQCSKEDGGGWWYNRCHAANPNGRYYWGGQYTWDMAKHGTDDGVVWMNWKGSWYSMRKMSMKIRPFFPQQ
T1 sequence (P02679 27-437 isoform P02679-2 limits assumed): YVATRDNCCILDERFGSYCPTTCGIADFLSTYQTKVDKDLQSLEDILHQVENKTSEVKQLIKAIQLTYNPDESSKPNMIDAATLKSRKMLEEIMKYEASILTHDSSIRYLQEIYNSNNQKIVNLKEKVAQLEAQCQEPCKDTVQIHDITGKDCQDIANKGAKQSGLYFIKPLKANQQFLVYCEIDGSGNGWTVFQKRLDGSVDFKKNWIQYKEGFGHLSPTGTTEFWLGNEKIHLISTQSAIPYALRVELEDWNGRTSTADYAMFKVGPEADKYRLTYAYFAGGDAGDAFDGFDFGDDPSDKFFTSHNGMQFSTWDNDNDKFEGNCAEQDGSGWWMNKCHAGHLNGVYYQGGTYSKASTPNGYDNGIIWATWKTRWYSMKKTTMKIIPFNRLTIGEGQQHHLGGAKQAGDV
Experimental: A fibrinogen solution was prepared at 10 mg/ml (or at twice the concentration of fibrin desired) in TBS buffer (50 mM Tris, 150 mM NaCl, pH 7.4). The fibrinogen solution typically contained ˜17 mM citrate. Subsequently, a solution was prepared containing 2 U/ml thrombin, 20 mM CaCl2, and 5 mM ε-aminocaproic acid in TBS. The fibrinogen solution and thrombin solution were mixed 1:1 in the wells of a 96-well plate, aliquoting 50 μL of each solution in each well (total volume=100 μL). The plates were evaporated to dryness overnight at 37° C. The polypeptide to be tested, dissolved in water, was added to each well at concentrations between 1-200 μM. […]
The supernatant in each well was removed by pipette and the concentration of the polypeptide was measured by mass spectrometry. The ion current detected at the mass of the peptide was monitored after injection of a sample into the mass spectrometer. The area-under-the-peak was quantitated and compared to standards of known concentration. […] The concentration of bound peptide was determined by subtracting the concentration of free peptide from the total (starting) concentration. […] The number of binding sites per fibrin molecule was equal to the lo concentration of binding sites determined by the [Bound Polypeptide] vs. [Free Polypeptide] plot, divided by the concentration of fibrin (15 μM) used in the assay.

DD(E) = target: T2, DD(E) (Homo sapiens, UniProt P02671+P02675+P02679); test: dissociation constant against fibrin-derived polypeptide DD(E); type: binding
T2 construct: host or cells: purchased fibrinogen clotted with thrombin, digested with plasmin, then purified by ammonium sulfate cuts and Sephacryl S200
Experimental: The soluble fibrin-derived polypeptide DD(E) was prepared following a modification of a published method (Moskoitz and Budzynksi, Biochemistry, 33: 12937-12944 (1994) and references therein). Fibrinogen containing a Factor XIII trace impurity (1 g, Grade L; purchased from American Diagnostica) was dissolved in TBS buffer and dialyzed overnight against TBS containing 5 mM citrate. The fibrinogen concentration was adjusted to 3.0 mg/ml and CaCl2 was added to a concentration of 10 mM. Clotting of the fibrinogen was initiated by the addition of thrombin to 0.5 U/ml and the clot was incubated for 3 hours at 37° C. The clot was cut up with a spatula to release water and to concentrate the clot. The clot pieces were washed twice with TBS.Ca buffer (TBS containing 2 mM CaCl2) and were centrifuged at 4,000×g to compact the clots between washes. The clot material was resuspended in 250 ml TBS containing 25 mM CaCl2 and 2 K.I.U. plasmin per mg fibrin. The clots were digested overnight at 20° C. Undigested clot was removed by pipette, and the supernatant was shaken with 10 ml of Lysine Sepharose (Pharmacia) for 30 minutes and filtered to remove the resin. Aprotinin was added to the filtrate to a concentration of 500 U/μL. Ammonium Sulfate was added to 30% saturation and the precipitated protein was removed by centrifugation. More ammonium sulfate was added to the supernatant to a final concentration of 50% saturation, and the precipitated protein was concentrated by centrifugation. The pellets, containing DD(E), were resuspended in a small volume of buffer (50 mM Tris, 150 mM NaCl, 2 mM CaCl2) (<10 ml) and chromatographed on a Sephacryl S200 (Pharmacia) size exclusion column (5×100 cm) in the same buffer. Fractions of protein eluted from the column were assayed by SDS-PAGE for DD(E). DD(E) contains subunits of 55 kD (Fragment E) and 190 kD (Fragment DD). […]
Dissociation constants were determined against DD(E) as described above.

SMILES | pKd (dried fibrin) | pKd (DD(E))
CC(C)C[C@H](NC(=O)[C@H](CS)NC(=O)[C@@H](NC(=O)CNC(=O)[C@H](C)NC(=O)[C@H](Cc1ccc(O)cc1)NC(=O)[C@H](CC(=O)O)NC(=O)[C@H](CS)NC(=O)[C@@H]1CCCN1C(=O)[C@@H](N)CC(C)C)[C@@H](C)O)C(=O)N[C@@H](CC(=O)O)C(N)=O [SEQ ID NO: 44, LPCDYAGTCLD] (H-LPCDYAGTCLD-NH2; N-terminus assumed) | < 4.00 | < 4.00
CC[C@H](C)[C@H](NC(=O)[C@H](Cc1c[nH]c2ccccc12)NC(=O)[C@@H]1CSSC[C@H](NC(=O)[C@H](CCC(=O)O)NC(=O)[C@H](Cc2c[nH]c3ccccc23)NC(=O)[C@@H](N)CCC(N)=O)C(=O)N2CCC[C@H]2C(=O)N[C@@H](Cc2ccc(O)cc2)C(=O)NCC(=O)N[C@@H](CC(C)C)C(=O)N1)C(=O)N[C@@H](CCC(N)=O)C(N)=O [SEQ ID NO: 22, Q W E C P Y G L C W I Q] (H-QWECPYGLCWIQ-NH2; disulfide 4-9; N-terminus and C-terminus assumed) |  | 5.53
CC[C@H](C)[C@H](NC(=O)[C@H](Cc1c[nH]c2ccccc12)NC(=O)[C@@H]1CSSC[C@H](NC(=O)[C@@H](N)CCC(=O)O)C(=O)N2CCC[C@H]2C(=O)N[C@@H](Cc2ccc(O)cc2)C(=O)NCC(=O)N[C@@H](CC(C)C)C(=O)N1)C(=O)N[C@@H](CCC(N)=O)C(N)=O [SEQ ID NO: 62, ECPYGLCWIQ] (H-ECPYGLCWIQ-NH2; disulfide 2-7 (inferred); N-terminus and C-terminus assumed) |  | 5.65
CC[C@H](C)[C@H](NC(=O)[C@H](Cc1c[nH]cn1)NC(=O)[C@@H]1CSSC[C@H](NC(=O)[C@H](Cc2c[nH]cn2)NC(=O)[C@@H](N)Cc2ccccc2)C(=O)N2CCC[C@H]2C(=O)N[C@@H](Cc2ccc(O)cc2)C(=O)N[C@@H](CC(=O)O)C(=O)N[C@@H](CC(C)C)C(=O)N1)C(=O)N[C@@H](CC(C)C)C(N)=O [SEQ ID NO: 58, FHCPYDLCHIL] (H-FHCPYDLCHIL-NH2; disulfide 3-8 (inferred); N-terminus and C-terminus assumed) |  | 6.39
